# Source: the supplement of paper PMC3682954
# Counter-ions that a name gives are not always drawn. ± gives the standard deviation of the averaged measurements. The list shows a part of the results. Repeats are few or missing, and single values can be far off.
# System: RAW 264.7
# Assay: HMGB1-induced TNF-alpha production relative to HMGB1-stimulated control; higher = more TNF-alpha secretion (less inhibition)
# Settings: stimulus: HMGB1 5 ug/ml, 18 h
Compound,HMGB1-induced TNF-alpha production (compound concentration: 3 uM) [%],HMGB1-induced TNF-alpha production (compound concentration: 1 ug/ml) [%]
CC(=O)O[C@]1(C(C)=O)CC[C@H]2[C@@H]3C[C@H](C)C4=CC(=O)CC[C@]4(C)[C@H]3CC[C@@]21C [Medroxyprogesterone 17-Acetate],96.9,–
CC(=O)O[C@]1(C(C)=O)CC[C@H]2[C@@H]3C[C@H](C)C4=CC(=O)CC[C@]4(C)[C@H]3CC[C@@]21C,87,–
C[C@H]1C[C@@H]2[C@H]([C@@H](O)C[C@@]3(C)[C@H]2CC[C@]3(O)C(=O)CO)[C@@]2(C)C=CC(=O)C=C12,42.2,–
"C[C@H]1C[C@@H]2[C@H]([C@@H](O)C[C@@]3(C)[C@H]2CC[C@]3(O)C(=O)CO)[C@@]2(C)C=CC(=O)C=C12 [Methylprednisolone, 6-alpha]",31.1,–
C[C@H]1C[C@@H]2[C@H]([C@@H](O)C[C@@]3(C)[C@H]2CC[C@]3(O)C(=O)CO)[C@@]2(C)C=CC(=O)C=C12 [Methylprednisolone],40.7,–
NC(=O)C(c1ccccc1)(c1ccccc1)[C@@H]1CCN(CCc2ccc3c(c2)CCO3)C1,93.5,–
CCCNCC(O)COc1ccccc1C(=O)CCc1ccccc1 (centres undefined),79.1,–
CCCNCC(O)COc1ccccc1C(=O)CCc1ccccc1 (centres undefined) [Propafenone],88.8,–
CCCNCC(O)COc1ccccc1C(=O)CCc1ccccc1 (centres undefined) [Propafenone hydrochloride],80.6 ± 44,–
CCCCCCCCCCCCCCCCCC(=O)OC(CC(=O)O)C[N+](C)(C)C (racemic) [DL-Stearoylcarnitine chloride],98.1,–
COc1cc(/C=C(\C#N)C(=O)Nc2nnc(C(F)(F)F)s2)ccc1OCc1ccc(C(F)(F)F)cc1C(F)(F)F,97.9,–
O=[N+]([O-])c1cccc2cn[nH]c12,102 ± 5.7,–
O=[N+]([O-])c1cccc2cn[nH]c12 [7-Nitroindazole],118,–
COc1ccccc1OCC(O)CN1CCN(CC(=O)Nc2c(C)cccc2C)CC1 (centres undefined),102,–
COc1ccccc1OCC(O)CN1CCN(CC(=O)Nc2c(C)cccc2C)CC1 (centres undefined) [Ranolazine],112 ± 41,–
COc1ccccc1OCC(O)CN1CCN(CC(=O)Nc2c(C)cccc2C)CC1 (centres undefined) [Ranolazine dihydrochloride],108 ± 2.8,–
COc1cc([C@@H]2c3cc4c(cc3[C@@H](O[C@@H]3O[C@@H]5CO[C@@H](C)O[C@H]5[C@H](O)[C@H]3O)[C@H]3COC(=O)[C@H]23)OCO4)cc(OC)c1O,106 ± 2.4,–
COc1cc([C@@H]2c3cc4c(cc3[C@@H](O[C@@H]3O[C@@H]5CO[C@@H](C)O[C@H]5[C@H](O)[C@H]3O)[C@H]3COC(=O)[C@H]23)OCO4)cc(OC)c1O [Etoposide; VP-16-213],–,99.4
COc1cc([C@@H]2c3cc4c(cc3[C@@H](O[C@@H]3O[C@@H]5CO[C@@H](C)O[C@H]5[C@H](O)[C@H]3O)[C@H]3COC(=O)[C@H]23)OCO4)cc(OC)c1O [Etoposide],99.1 ± 8.1,–

# Copied from the list.
# CCCNCC(O)COc1ccccc1C(=O)CCc1ccccc1 (centres undefined) – HMGB1-induced TNF-alpha production (compound concentration: 3 uM) [%]: 79.1
# COc1ccccc1OCC(O)CN1CCN(CC(=O)Nc2c(C)cccc2C)CC1 (centres undefined) [Ranolazine] – HMGB1-induced TNF-alpha production (compound concentration: 3 uM) [%]: 112 ± 41
